For 6 molecules, binding results are on record in publication PMC3924727.

Test [1] deals with T1, OsSPX3 (SPX3), yeast two-hybrid fusions AD-SPX3 and BD-SPX3 (rice (Oryza sativa)) (UniProt Q7XEY9).
T1 sequence: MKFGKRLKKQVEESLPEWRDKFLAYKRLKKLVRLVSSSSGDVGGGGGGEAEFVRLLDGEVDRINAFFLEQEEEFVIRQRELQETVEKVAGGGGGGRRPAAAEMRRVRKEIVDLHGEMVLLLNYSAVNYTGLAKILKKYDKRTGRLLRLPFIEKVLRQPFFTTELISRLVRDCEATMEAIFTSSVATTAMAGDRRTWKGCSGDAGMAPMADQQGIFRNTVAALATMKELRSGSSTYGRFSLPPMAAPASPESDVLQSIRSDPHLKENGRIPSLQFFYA
As to the kind of experiment: two-hybrid; Matchmaker GAL4 Two-Hybrid System3; AD and BD fusions cotransformed into yeast AH109, plated on SD/-Trp-Leu-His-Ade or SD/-Trp-Leu, 30 °C for 3-5 d.

The target of test [2] is T2, SPX3-MYC / SPX3-FLAG (OsSPX3 expressed from 35S-SPX3-MYC or 35S-SPX3-FLAG) (rice (Oryza sativa)) (UniProt Q7XEY9).
T2 sequence: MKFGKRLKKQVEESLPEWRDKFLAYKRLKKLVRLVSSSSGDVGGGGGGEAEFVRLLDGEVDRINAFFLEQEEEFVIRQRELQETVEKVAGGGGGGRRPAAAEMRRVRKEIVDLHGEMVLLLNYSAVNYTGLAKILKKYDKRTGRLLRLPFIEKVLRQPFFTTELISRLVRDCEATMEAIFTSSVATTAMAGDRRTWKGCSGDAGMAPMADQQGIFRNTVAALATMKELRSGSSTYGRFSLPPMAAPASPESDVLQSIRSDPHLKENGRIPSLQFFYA
Briefly: co-IP; MYC and FLAG fusions transiently co-expressed in tobacco (N. benthamiana) leaves; lysates (50mM Tris, 50mM NaCl, 1mM EDTA, 1mM DTT) incubated 4h with anti-FLAG antibody-conjugated beads at 4 °C; immunoblot with anti-FLAG or anti-MYC. In general terms: A western blot detects proteins with antibodies after separation by electrophoresis.

The target of test [3] is T3, SPX5-YFP^N / SPX5-YFP^C (OsSPX5 BiFC fusions) (rice (Oryza sativa)) (UniProt Q7Y0F6).
T3 sequence: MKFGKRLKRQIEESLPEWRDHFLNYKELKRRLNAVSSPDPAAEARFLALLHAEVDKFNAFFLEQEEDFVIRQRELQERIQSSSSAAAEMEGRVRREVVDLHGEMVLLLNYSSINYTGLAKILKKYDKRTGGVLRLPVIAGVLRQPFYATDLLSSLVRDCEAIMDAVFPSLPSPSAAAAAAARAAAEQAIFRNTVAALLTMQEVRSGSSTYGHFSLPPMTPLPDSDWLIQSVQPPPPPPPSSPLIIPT
As to the kind of experiment: split reporter; BiFC with YFP^N and YFP^C fusions transiently co-expressed in tobacco leaves; YFP fluorescence by confocal microscopy 48-72h after infiltration.

In test [4] the target is T4, SPX3-YFP^N / SPX3-YFP^C (OsSPX3 BiFC fusions) (rice (Oryza sativa)) (UniProt Q7XEY9).
T4 sequence: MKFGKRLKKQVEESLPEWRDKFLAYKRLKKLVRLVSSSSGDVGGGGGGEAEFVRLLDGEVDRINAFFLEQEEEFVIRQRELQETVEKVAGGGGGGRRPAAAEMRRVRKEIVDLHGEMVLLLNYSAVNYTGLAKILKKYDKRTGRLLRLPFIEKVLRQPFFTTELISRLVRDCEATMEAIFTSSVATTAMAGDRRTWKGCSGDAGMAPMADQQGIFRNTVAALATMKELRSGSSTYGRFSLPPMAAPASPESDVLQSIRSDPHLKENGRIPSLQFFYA
The test is described as above.

Test [5] concerns the target OsSPX5 (SPX5), yeast two-hybrid fusions AD-SPX5 and BD-SPX5 (rice (Oryza sativa)) (UniProt Q7Y0F6). Briefly: two-hybrid; Matchmaker GAL4 Two-Hybrid System3; AD and BD fusions cotransformed into yeast AH109, plated on SD/-Trp-Leu-His-Ade or SD/-Trp-Leu, 30 °C for 3-5 d.
The target of test [6] is SPX5-MYC / SPX5-FLAG (OsSPX5 expressed from 35S-SPX5-MYC or 35S-SPX5-FLAG) (rice (Oryza sativa)) (UniProt Q7Y0F6). Briefly: co-IP; MYC and FLAG fusions transiently co-expressed in tobacco (N. benthamiana) leaves; lysates (50mM Tris, 50mM NaCl, 1mM EDTA, 1mM DTT) incubated 4h with anti-FLAG antibody-conjugated beads at 4 °C; immunoblot with anti-FLAG or anti-MYC.

No constants are given. Whether binding was seen depends on the method and setting. For some of these results: Binding seen in cells or lysates may run through a third protein. Some results given as binding are weak or reduced against the parent protein; the word gives no strength. Tags and fused reporters may be left off the sequences shown.

B1: OsSPX3 (SPX3), yeast two-hybrid fusions AD-SPX3 and BD-SPX3 (protein, UniProt Q7XEY9 1-277)
chain: MKFGKRLKKQVEESLPEWRDKFLAYKRLKKLVRLVSSSSGDVGGGGGGEAEFVRLLDGEVDRINAFFLEQEEEFVIRQRELQETVEKVAGGGGGGRRPAAAEMRRVRKEIVDLHGEMVLLLNYSAVNYTGLAKILKKYDKRTGRLLRLPFIEKVLRQPFFTTELISRLVRDCEATMEAIFTSSVATTAMAGDRRTWKGCSGDAGMAPMADQQGIFRNTVAALATMKELRSGSSTYGRFSLPPMAAPASPESDVLQSIRSDPHLKENGRIPSLQFFYA
Turning to B1, in test [1], the binding result was “binds”.

B2: SPX3-MYC / SPX3-FLAG (OsSPX3 expressed from 35S-SPX3-MYC or 35S-SPX3-FLAG) (protein, UniProt Q7XEY9 1-277)
chain: MKFGKRLKKQVEESLPEWRDKFLAYKRLKKLVRLVSSSSGDVGGGGGGEAEFVRLLDGEVDRINAFFLEQEEEFVIRQRELQETVEKVAGGGGGGRRPAAAEMRRVRKEIVDLHGEMVLLLNYSAVNYTGLAKILKKYDKRTGRLLRLPFIEKVLRQPFFTTELISRLVRDCEATMEAIFTSSVATTAMAGDRRTWKGCSGDAGMAPMADQQGIFRNTVAALATMKELRSGSSTYGRFSLPPMAAPASPESDVLQSIRSDPHLKENGRIPSLQFFYA
As for B2, in test [2], the binding result was “binds”.

B3: SPX3-YFP^N / SPX3-YFP^C (OsSPX3 BiFC fusions) (protein, UniProt Q7XEY9 1-277)
chain: MKFGKRLKKQVEESLPEWRDKFLAYKRLKKLVRLVSSSSGDVGGGGGGEAEFVRLLDGEVDRINAFFLEQEEEFVIRQRELQETVEKVAGGGGGGRRPAAAEMRRVRKEIVDLHGEMVLLLNYSAVNYTGLAKILKKYDKRTGRLLRLPFIEKVLRQPFFTTELISRLVRDCEATMEAIFTSSVATTAMAGDRRTWKGCSGDAGMAPMADQQGIFRNTVAALATMKELRSGSSTYGRFSLPPMAAPASPESDVLQSIRSDPHLKENGRIPSLQFFYA
Take B3: the binding entry in test [3] and in test [4] was “binds” in each case.

B4: OsSPX5 (SPX5), yeast two-hybrid fusions AD-SPX5 and BD-SPX5 (protein, UniProt Q7Y0F6 1-247)
chain: MKFGKRLKRQIEESLPEWRDHFLNYKELKRRLNAVSSPDPAAEARFLALLHAEVDKFNAFFLEQEEDFVIRQRELQERIQSSSSAAAEMEGRVRREVVDLHGEMVLLLNYSSINYTGLAKILKKYDKRTGGVLRLPVIAGVLRQPFYATDLLSSLVRDCEAIMDAVFPSLPSPSAAAAAAARAAAEQAIFRNTVAALLTMQEVRSGSSTYGHFSLPPMTPLPDSDWLIQSVQPPPPPPPSSPLIIPT
As for B4, the binding entry in test [5] and in test [1] was “binds” throughout.

B5: SPX5-YFP^N / SPX5-YFP^C (OsSPX5 BiFC fusions) (protein, UniProt Q7Y0F6 1-247)
chain: MKFGKRLKRQIEESLPEWRDHFLNYKELKRRLNAVSSPDPAAEARFLALLHAEVDKFNAFFLEQEEDFVIRQRELQERIQSSSSAAAEMEGRVRREVVDLHGEMVLLLNYSSINYTGLAKILKKYDKRTGGVLRLPVIAGVLRQPFYATDLLSSLVRDCEAIMDAVFPSLPSPSAAAAAAARAAAEQAIFRNTVAALLTMQEVRSGSSTYGHFSLPPMTPLPDSDWLIQSVQPPPPPPPSSPLIIPT
Consider B5, for which the binding result in test [3] and in test [4] was “binds” throughout.

B6: SPX5-MYC / SPX5-FLAG (OsSPX5 expressed from 35S-SPX5-MYC or 35S-SPX5-FLAG) (protein, UniProt Q7Y0F6 1-247)
chain: MKFGKRLKRQIEESLPEWRDHFLNYKELKRRLNAVSSPDPAAEARFLALLHAEVDKFNAFFLEQEEDFVIRQRELQERIQSSSSAAAEMEGRVRREVVDLHGEMVLLLNYSSINYTGLAKILKKYDKRTGGVLRLPVIAGVLRQPFYATDLLSSLVRDCEAIMDAVFPSLPSPSAAAAAAARAAAEQAIFRNTVAALLTMQEVRSGSSTYGHFSLPPMTPLPDSDWLIQSVQPPPPPPPSSPLIIPT
On to B6, for which the binding result in test [2] and in test [6] was “binds” in each case.
